Data on 37 targets can be found in the supplement of paper PMC11732987, “Enantioselective OTUD7B fragment discovery through chemoproteomics screening and high-throughput optimisation” (Communications Chemistry, 2025).

Amino acid sequences for entries named in this document (tags omitted). A change or cut given only in a name is not applied to a line headed by its entry. Residues count along the entry.
UniProt P35520, 337-359: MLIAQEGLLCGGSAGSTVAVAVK
UniProt O60566, whole entry, looked up: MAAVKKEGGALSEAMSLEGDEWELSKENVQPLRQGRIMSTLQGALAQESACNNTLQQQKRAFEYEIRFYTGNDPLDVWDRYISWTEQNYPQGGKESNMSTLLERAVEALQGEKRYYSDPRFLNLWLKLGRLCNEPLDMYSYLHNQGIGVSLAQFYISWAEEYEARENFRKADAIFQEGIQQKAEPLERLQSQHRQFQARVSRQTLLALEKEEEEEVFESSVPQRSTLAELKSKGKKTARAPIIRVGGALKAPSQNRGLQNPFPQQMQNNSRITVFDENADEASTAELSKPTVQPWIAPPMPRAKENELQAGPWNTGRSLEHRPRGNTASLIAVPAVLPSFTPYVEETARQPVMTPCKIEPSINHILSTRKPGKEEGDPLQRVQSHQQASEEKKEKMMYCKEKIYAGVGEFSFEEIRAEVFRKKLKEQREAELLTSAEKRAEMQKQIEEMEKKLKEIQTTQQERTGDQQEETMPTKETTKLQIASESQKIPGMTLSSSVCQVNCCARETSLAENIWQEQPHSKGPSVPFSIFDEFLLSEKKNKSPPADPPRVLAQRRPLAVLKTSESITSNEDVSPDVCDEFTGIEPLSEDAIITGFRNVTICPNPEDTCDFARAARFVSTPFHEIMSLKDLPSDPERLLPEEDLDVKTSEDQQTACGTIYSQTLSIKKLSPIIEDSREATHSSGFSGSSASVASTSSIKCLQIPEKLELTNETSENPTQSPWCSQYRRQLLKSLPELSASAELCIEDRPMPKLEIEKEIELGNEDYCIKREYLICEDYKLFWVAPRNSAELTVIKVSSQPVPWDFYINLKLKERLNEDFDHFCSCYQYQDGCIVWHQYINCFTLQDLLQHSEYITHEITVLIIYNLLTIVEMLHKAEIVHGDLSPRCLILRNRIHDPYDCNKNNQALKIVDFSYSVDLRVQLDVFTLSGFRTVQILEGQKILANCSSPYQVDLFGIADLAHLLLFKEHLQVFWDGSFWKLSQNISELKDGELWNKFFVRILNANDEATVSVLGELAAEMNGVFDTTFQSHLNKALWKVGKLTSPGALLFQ
UniProt O14936: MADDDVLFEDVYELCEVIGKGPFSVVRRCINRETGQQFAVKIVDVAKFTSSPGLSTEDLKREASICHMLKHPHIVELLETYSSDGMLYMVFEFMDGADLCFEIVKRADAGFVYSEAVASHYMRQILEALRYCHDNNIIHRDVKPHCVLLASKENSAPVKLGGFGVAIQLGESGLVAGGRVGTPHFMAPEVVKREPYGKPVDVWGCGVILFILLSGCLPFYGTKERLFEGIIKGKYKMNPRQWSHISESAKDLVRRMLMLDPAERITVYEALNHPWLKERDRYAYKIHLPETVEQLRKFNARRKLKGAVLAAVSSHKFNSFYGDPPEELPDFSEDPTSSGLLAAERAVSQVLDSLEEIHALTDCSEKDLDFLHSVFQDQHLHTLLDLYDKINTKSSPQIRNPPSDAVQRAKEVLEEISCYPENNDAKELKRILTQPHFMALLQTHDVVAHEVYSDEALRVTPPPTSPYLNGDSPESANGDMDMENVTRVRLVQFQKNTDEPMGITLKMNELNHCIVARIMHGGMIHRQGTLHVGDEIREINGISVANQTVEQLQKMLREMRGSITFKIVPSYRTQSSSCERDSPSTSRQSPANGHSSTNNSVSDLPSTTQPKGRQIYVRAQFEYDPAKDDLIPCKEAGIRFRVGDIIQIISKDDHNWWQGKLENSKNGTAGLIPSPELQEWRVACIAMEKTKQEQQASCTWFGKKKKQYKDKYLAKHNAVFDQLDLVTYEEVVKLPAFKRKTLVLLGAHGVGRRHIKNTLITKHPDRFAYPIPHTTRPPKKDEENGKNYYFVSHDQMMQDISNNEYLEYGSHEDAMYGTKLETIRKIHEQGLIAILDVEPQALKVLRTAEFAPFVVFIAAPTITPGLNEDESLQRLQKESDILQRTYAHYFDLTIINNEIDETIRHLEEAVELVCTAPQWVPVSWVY
UniProt Q86YS7, 816-844: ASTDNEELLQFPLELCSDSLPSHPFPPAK
UniProt P47756, whole entry, looked up: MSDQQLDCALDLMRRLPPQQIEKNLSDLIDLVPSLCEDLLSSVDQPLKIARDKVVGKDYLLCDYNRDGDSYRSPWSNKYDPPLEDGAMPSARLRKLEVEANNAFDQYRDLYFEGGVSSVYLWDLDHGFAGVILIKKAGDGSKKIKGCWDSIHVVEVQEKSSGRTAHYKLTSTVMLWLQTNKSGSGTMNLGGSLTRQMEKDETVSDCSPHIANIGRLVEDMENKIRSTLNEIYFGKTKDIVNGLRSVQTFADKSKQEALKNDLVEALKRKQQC
UniProt Q8NFC6, 867-895: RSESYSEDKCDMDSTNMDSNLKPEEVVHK
UniProt O75808, 250-272: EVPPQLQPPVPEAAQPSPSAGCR
UniProt Q9BRT8: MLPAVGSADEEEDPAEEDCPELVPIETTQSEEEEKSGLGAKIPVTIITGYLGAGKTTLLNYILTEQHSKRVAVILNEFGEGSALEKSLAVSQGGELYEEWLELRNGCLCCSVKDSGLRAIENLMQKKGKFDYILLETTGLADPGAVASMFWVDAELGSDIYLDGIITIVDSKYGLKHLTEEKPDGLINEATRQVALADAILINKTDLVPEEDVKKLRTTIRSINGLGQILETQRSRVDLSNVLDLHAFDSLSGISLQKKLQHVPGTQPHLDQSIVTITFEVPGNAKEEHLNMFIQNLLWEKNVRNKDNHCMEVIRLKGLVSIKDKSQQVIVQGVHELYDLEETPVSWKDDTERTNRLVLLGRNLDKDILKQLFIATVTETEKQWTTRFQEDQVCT
UniProt Q9BX63: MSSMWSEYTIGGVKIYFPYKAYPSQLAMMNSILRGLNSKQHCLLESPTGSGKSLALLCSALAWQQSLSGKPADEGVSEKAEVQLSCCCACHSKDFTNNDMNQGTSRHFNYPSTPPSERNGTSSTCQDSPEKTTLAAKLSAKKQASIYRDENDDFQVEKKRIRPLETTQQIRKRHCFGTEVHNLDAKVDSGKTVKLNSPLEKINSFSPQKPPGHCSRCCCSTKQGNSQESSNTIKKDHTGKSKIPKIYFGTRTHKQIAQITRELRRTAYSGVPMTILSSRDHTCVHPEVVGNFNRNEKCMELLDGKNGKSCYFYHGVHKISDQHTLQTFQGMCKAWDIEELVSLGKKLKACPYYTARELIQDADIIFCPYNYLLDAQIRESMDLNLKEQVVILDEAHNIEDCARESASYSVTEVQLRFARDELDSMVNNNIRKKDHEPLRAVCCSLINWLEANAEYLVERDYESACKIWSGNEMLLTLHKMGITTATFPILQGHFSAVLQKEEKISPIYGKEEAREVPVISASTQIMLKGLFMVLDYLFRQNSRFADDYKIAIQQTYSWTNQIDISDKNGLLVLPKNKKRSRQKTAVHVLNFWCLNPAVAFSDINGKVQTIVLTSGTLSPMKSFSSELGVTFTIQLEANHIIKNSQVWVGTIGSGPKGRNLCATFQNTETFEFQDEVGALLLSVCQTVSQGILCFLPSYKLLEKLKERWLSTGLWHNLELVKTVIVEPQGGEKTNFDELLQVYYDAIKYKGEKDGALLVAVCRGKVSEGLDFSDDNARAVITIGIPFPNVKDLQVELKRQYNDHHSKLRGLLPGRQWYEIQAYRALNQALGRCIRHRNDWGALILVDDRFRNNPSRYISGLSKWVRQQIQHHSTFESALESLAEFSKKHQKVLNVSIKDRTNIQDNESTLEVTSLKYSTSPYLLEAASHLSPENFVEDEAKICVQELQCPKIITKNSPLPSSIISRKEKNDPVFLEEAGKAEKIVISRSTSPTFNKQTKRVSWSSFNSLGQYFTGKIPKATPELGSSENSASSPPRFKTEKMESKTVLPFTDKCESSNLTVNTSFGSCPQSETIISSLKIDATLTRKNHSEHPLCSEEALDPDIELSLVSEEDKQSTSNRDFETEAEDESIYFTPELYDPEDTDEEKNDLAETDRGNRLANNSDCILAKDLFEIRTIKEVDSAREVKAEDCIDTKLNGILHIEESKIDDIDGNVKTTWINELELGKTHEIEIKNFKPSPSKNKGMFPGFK
UniProt Q86X55, 62-81: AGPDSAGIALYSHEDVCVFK
UniProt O14981: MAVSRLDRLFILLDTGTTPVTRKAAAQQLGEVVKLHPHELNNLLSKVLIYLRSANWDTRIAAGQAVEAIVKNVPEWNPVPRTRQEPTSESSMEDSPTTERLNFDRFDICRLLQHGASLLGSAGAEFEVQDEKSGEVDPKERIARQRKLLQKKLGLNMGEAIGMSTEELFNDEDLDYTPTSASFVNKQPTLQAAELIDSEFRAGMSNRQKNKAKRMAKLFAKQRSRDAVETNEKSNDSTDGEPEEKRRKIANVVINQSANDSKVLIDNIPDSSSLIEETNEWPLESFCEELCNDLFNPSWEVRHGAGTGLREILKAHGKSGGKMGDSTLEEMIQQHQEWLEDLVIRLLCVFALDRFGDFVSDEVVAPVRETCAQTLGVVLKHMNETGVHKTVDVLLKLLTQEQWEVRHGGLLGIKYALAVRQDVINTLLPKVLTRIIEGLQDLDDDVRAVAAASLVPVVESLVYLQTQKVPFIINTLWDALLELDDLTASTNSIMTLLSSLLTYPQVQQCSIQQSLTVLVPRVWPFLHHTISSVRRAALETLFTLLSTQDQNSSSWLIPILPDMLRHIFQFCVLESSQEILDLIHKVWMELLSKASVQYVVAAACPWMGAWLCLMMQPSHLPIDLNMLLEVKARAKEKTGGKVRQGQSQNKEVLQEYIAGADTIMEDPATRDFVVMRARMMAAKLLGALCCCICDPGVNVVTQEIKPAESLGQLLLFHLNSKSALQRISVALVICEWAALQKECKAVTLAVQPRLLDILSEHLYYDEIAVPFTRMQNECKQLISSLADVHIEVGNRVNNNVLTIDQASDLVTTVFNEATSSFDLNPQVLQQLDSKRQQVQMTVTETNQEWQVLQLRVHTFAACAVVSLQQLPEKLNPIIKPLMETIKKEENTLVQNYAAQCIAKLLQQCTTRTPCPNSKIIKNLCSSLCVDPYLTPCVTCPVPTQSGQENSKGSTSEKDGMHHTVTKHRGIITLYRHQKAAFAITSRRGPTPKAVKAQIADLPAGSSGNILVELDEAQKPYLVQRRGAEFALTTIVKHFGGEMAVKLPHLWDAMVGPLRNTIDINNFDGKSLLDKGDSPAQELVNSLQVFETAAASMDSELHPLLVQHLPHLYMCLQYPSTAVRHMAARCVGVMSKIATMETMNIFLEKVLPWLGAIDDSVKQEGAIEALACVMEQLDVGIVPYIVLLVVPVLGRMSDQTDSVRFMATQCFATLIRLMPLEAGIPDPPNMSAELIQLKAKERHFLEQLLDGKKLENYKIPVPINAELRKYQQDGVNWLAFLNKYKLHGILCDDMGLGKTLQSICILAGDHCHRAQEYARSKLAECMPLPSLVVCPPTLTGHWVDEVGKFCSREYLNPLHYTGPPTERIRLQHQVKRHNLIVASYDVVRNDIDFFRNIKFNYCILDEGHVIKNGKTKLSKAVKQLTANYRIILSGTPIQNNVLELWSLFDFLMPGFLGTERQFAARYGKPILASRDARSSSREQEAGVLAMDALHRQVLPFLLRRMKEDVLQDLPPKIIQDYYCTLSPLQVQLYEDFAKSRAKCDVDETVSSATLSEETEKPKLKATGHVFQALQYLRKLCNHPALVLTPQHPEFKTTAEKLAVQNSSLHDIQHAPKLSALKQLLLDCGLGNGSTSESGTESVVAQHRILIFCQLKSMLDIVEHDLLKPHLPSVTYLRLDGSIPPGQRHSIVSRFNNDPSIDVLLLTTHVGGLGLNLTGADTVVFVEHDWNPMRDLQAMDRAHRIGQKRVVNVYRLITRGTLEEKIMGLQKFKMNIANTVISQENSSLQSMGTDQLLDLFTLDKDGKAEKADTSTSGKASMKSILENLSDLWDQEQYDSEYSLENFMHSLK
UniProt Q9NPI1: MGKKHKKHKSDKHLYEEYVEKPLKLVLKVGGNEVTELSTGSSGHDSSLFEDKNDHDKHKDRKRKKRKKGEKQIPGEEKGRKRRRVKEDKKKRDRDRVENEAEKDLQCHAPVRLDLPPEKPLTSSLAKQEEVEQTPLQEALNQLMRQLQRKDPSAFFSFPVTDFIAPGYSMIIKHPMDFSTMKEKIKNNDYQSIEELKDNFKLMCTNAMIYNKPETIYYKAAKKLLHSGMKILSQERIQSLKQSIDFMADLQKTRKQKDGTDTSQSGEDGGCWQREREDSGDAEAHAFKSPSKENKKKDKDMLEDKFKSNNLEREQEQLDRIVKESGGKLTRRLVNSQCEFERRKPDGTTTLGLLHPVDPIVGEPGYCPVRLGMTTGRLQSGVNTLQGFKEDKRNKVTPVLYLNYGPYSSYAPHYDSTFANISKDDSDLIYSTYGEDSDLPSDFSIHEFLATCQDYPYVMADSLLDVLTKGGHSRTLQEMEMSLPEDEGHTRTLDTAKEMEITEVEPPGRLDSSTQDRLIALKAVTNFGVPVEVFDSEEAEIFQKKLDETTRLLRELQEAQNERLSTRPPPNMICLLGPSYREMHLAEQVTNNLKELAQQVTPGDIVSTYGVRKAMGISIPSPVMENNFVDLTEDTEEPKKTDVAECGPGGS
UniProt Q8N350, 178-202: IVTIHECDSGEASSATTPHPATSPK

This is one part of the list. The data scatter; read single values as rough.

Compound in one experiment: ClCC(=O)N[C@@H]1CCCc2ccccc12
The experiment in a line: log2 mean competition ratio of IA-DTB cysteine labelling (DMSO/compound) (log2 ratio); higher = stronger cysteine engagement by compound. As to conditions: 50 µM; treatment time: 4 h; cell line lysate: HEK293T. How it is done: (§1)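 IA-DTB competitive cysteine chemoproteomics in HEK293T RIPA lysate. Lysates were treated with compound 29 or 30 at 50 or 200 µM for 4 h, then IA-DTB (500 µM, 1 h), trypsin-digested, NeutrAvidin-enriched and analysed by diaPASEF. Competition ratio = intensity DMSO / intensity compound (n=4 treated, n=64 DMSO); binding: mean log2 CR ≥ 1 and p ≤ 0.05 plus QC filters. Target is the cysteine site.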
For CAST C413 (UniProt P20810), the “log2 mean competition ratio” value was 0.0159.

For the target CAND2 C945 (UniProt O75155), the “log2 mean competition ratio” value came to 0.0715.

For CBS C109 (UniProt P35520), the “log2 mean competition ratio” value was -0.105.

BUB1B C900 (UniProt O60566): the “log2 mean competition ratio” value worked out at 0.117.

On to BRIX1 C107 (UniProt Q8TDN6), for which the “log2 mean competition ratio” value was -0.743.

BPTF C2888: the “log2 mean competition ratio” value is -0.0169.

As to CAPZA2 C111 (UniProt P47755), the “log2 mean competition ratio” value was -0.204.

CASK C513 (UniProt O14936): the “log2 mean competition ratio” value is 0.212.

In the case of CARMIL1 C708, the “log2 mean competition ratio” value is 0.0757.

Staying with this experiment, now noted: 200 µM; treatment time: 4 h; cell line lysate: HEK293T.
Turning to CARMIL1 C1106, the “log2 mean competition ratio” value amounted to 0.156.

As to C2CD5 C831 (UniProt Q86YS7), the “log2 mean competition ratio” value is -0.437.

In the case of BRF1 C430 (UniProt Q92994), the “log2 mean competition ratio” value was -0.266.

Regarding BRCA1 C712 (UniProt P38398), the “log2 mean competition ratio” value was -0.11.

Turning to CAPZB C62 (UniProt P47756), the “log2 mean competition ratio” value was -0.179.

Regarding BOD1L1 C1170 (UniProt Q8NFC6), the “log2 mean competition ratio” value was found to be 0.000872.

As for CAPN15 C271 (UniProt O75808), the “log2 mean competition ratio” value worked out at 0.38.

On to BOD1L1 C876 (UniProt Q8NFC6), for which the “log2 mean competition ratio” value is -0.165.

In the case of CAD C897, the “log2 mean competition ratio” value was 0.0754.

As to CBS C346 (UniProt P35520), the “log2 mean competition ratio” value is 0.495.

Turning to CBWD1 C310 (UniProt Q9BRT8), the “log2 mean competition ratio” value was -0.0156.

As to CALCOCO2 C321 (UniProt Q13137), the “log2 mean competition ratio” value was -0.194.

As to BRIP1 C1164 (UniProt Q9BX63), the “log2 mean competition ratio” value worked out at 0.0122.

For CARM1 C78 (UniProt Q86X55), the “log2 mean competition ratio” value is -0.0661.

With BTAF1 C1401 (UniProt O14981), the “log2 mean competition ratio” value is -0.36.

As for CBX4 C185 (UniProt O00257), the “log2 mean competition ratio” value is -0.0203.

As for BRD7 C271 (UniProt Q9NPI1), the “log2 mean competition ratio” value stood at 0.481.

Consider CAMK2G C290 (UniProt Q13555), for which the “log2 mean competition ratio” value was -0.00251.

Regarding BTF3 C22 (UniProt P20290), the “log2 mean competition ratio” value was -0.281.

As to CAMK2D C273 (UniProt Q13557), the “log2 mean competition ratio” value is -0.094.

For CADPS2 C1097, the “log2 mean competition ratio” value was -0.213.

BUB1 C407 (UniProt O43683): the “log2 mean competition ratio” value worked out at 0.221.

Consider CABIN1 C1197 (UniProt Q9Y6J0), for which the “log2 mean competition ratio” value was determined as 0.243.

With BTAF1 C900 (UniProt O14981), the “log2 mean competition ratio” value was -0.0216.

With CARS2 C387 (UniProt Q9HA77), the “log2 mean competition ratio” value is -0.212.

Consider CBL C508 (UniProt P22681), for which the “log2 mean competition ratio” value was determined as 0.0923.

On to CBARP C184 (UniProt Q8N350), for which the “log2 mean competition ratio” value came to 0.0949.

With CAPN1 C351, the “log2 mean competition ratio” value was -0.161.

For CAST C413 (UniProt P20810), the “log2 mean competition ratio” value is -0.17.

CAND2 C945 (UniProt O75155): the “log2 mean competition ratio” value was found to be 0.0605.

In the case of CBS C109 (UniProt P35520), the “log2 mean competition ratio” value was -0.0194.

As for BUB1B C900 (UniProt O60566), the “log2 mean competition ratio” value worked out at 0.328.

With BRIX1 C107 (UniProt Q8TDN6), the “log2 mean competition ratio” value worked out at 0.0599.

With BPTF C2888, the “log2 mean competition ratio” value worked out at 0.0181.

In the case of CAPZA2 C111 (UniProt P47755), the “log2 mean competition ratio” value is 0.0624.

Regarding CASK C513 (UniProt O14936), the “log2 mean competition ratio” value is -0.0896.

Take CARMIL1 C708: the “log2 mean competition ratio” value turned out to be 0.0494.

Compound in the next experiment: ClCC(=O)N[C@H]1CCCc2ccccc12
Described as above. As to conditions: 50 µM; treatment time: 4 h; cell line lysate: HEK293T. The procedure:
as §1
On to CARMIL1 C1106, for which the “log2 mean competition ratio” value was -0.00298.

With C2CD5 C831 (UniProt Q86YS7), the “log2 mean competition ratio” value is 0.0722.

For the target BRF1 C430 (UniProt Q92994), the “log2 mean competition ratio” value was -0.137.

As to BRCA1 C712 (UniProt P38398), the “log2 mean competition ratio” value was -0.0314.

In the case of CAPZB C62 (UniProt P47756), the “log2 mean competition ratio” value stood at 0.201.

With BOD1L1 C1170 (UniProt Q8NFC6), the “log2 mean competition ratio” value came to 0.0283.

CAPN15 C271 (UniProt O75808): the “log2 mean competition ratio” value was -0.119.

Turning to BOD1L1 C876 (UniProt Q8NFC6), the “log2 mean competition ratio” value was -0.683.

For the target CAD C897, the “log2 mean competition ratio” value was 0.259.

On to CBS C346 (UniProt P35520), for which the “log2 mean competition ratio” value is -0.18.

Consider CBWD1 C310 (UniProt Q9BRT8), for which the “log2 mean competition ratio” value was -0.128.

Regarding CALCOCO2 C321 (UniProt Q13137), the “log2 mean competition ratio” value is -0.274.

For BRIP1 C1164 (UniProt Q9BX63), the “log2 mean competition ratio” value was -0.287.

As for CARM1 C78 (UniProt Q86X55), the “log2 mean competition ratio” value is -0.203.

For BTAF1 C1401 (UniProt O14981), the “log2 mean competition ratio” value was -0.0597.

Regarding CBX4 C185 (UniProt O00257), the “log2 mean competition ratio” value stood at 0.115.

For BRD7 C271 (UniProt Q9NPI1), the “log2 mean competition ratio” value was 0.686.

Consider CAMK2G C290 (UniProt Q13555), for which the “log2 mean competition ratio” value is 0.24.

With BTF3 C22 (UniProt P20290), the “log2 mean competition ratio” value is 0.343.

In the case of CAMK2D C273 (UniProt Q13557), the “log2 mean competition ratio” value came out at 0.124.

For the target CADPS2 C1097, the “log2 mean competition ratio” value is -0.657.

On to BUB1 C407 (UniProt O43683), for which the “log2 mean competition ratio” value is -0.0355.

With CABIN1 C1197 (UniProt Q9Y6J0), the “log2 mean competition ratio” value is -0.116.

Consider BTAF1 C900 (UniProt O14981), for which the “log2 mean competition ratio” value was -0.0465.

In the case of CARS2 C387 (UniProt Q9HA77), the “log2 mean competition ratio” value stood at 0.000996.

On to CBL C508 (UniProt P22681), for which the “log2 mean competition ratio” value was 0.28.

As for CBARP C184 (UniProt Q8N350), the “log2 mean competition ratio” value is -0.0623.

With CAPN1 C351, the “log2 mean competition ratio” value is -0.373.

In the case of CAST C413 (UniProt P20810), the “log2 mean competition ratio” value was 0.695.

For the target CAND2 C945 (UniProt O75155), the “log2 mean competition ratio” value was -0.183.

For the target CBS C109 (UniProt P35520), the “log2 mean competition ratio” value was -0.278.

As for BUB1B C900 (UniProt O60566), the “log2 mean competition ratio” value turned out to be 0.111.

Regarding BRIX1 C107 (UniProt Q8TDN6), the “log2 mean competition ratio” value was -0.188.

In the case of BPTF C2888, the “log2 mean competition ratio” value turned out to be 0.0544.

As to CAPZA2 C111 (UniProt P47755), the “log2 mean competition ratio” value is -0.352.

As to CASK C513 (UniProt O14936), the “log2 mean competition ratio” value was -0.288.

Consider CARMIL1 C708, for which the “log2 mean competition ratio” value came to 0.00812.

The same experiment, now with this note: 200 µM; treatment time: 4 h; cell line lysate: HEK293T.
CARMIL1 C1106: the “log2 mean competition ratio” value was determined as 0.48.

In the case of C2CD5 C831 (UniProt Q86YS7), the “log2 mean competition ratio” value was found to be 0.205.

As for BRF1 C430 (UniProt Q92994), the “log2 mean competition ratio” value is -0.191.

BRCA1 C712 (UniProt P38398): the “log2 mean competition ratio” value is -0.297.

As for CAPZB C62 (UniProt P47756), the “log2 mean competition ratio” value is -0.167.

In the case of BOD1L1 C1170 (UniProt Q8NFC6), the “log2 mean competition ratio” value is 0.0942.

Consider CAPN15 C271 (UniProt O75808), for which the “log2 mean competition ratio” value came out at 0.43.

On to BOD1L1 C876 (UniProt Q8NFC6), for which the “log2 mean competition ratio” value was -0.422.

For the target CAD C897, the “log2 mean competition ratio” value is -0.0425.

Turning to CBS C346 (UniProt P35520), the “log2 mean competition ratio” value was determined as 0.0287.

CBWD1 C310 (UniProt Q9BRT8): the “log2 mean competition ratio” value is -0.125.

With CALCOCO2 C321 (UniProt Q13137), the “log2 mean competition ratio” value is 0.245.

Turning to BRIP1 C1164 (UniProt Q9BX63), the “log2 mean competition ratio” value turned out to be 0.00409.

On to CARM1 C78 (UniProt Q86X55), for which the “log2 mean competition ratio” value was -0.198.

Turning to BTAF1 C1401 (UniProt O14981), the “log2 mean competition ratio” value is -0.407.

Take CBX4 C185 (UniProt O00257): the “log2 mean competition ratio” value is 0.0428.

BRD7 C271 (UniProt Q9NPI1): the “log2 mean competition ratio” value is -0.00887.

In the case of CAMK2G C290 (UniProt Q13555), the “log2 mean competition ratio” value was 0.0549.

As for BTF3 C22 (UniProt P20290), the “log2 mean competition ratio” value is -0.157.

Take CAMK2D C273 (UniProt Q13557): the “log2 mean competition ratio” value was -0.153.

As for CADPS2 C1097, the “log2 mean competition ratio” value is -0.17.

Take BUB1 C407 (UniProt O43683): the “log2 mean competition ratio” value amounted to 0.359.

Regarding CABIN1 C1197 (UniProt Q9Y6J0), the “log2 mean competition ratio” value stood at 0.0359.

For the target BTAF1 C900 (UniProt O14981), the “log2 mean competition ratio” value was -0.118.

For the target CARS2 C387 (UniProt Q9HA77), the “log2 mean competition ratio” value was -0.225.

Consider CBL C508 (UniProt P22681), for which the “log2 mean competition ratio” value is 0.33.

As for CBARP C184 (UniProt Q8N350), the “log2 mean competition ratio” value is -0.118.

Consider CAPN1 C351, for which the “log2 mean competition ratio” value was -0.13.

As to CAST C413 (UniProt P20810), the “log2 mean competition ratio” value was 0.0558.

In the case of CAND2 C945 (UniProt O75155), the “log2 mean competition ratio” value came to 0.176.

On to CBS C109 (UniProt P35520), for which the “log2 mean competition ratio” value was -0.0308.

As to BUB1B C900 (UniProt O60566), the “log2 mean competition ratio” value came out at 0.19.

As for BRIX1 C107 (UniProt Q8TDN6), the “log2 mean competition ratio” value came out at 0.431.

For the target BPTF C2888, the “log2 mean competition ratio” value came out at 0.113.

Consider CAPZA2 C111 (UniProt P47755), for which the “log2 mean competition ratio” value is -0.228.

On to CASK C513 (UniProt O14936), for which the “log2 mean competition ratio” value was -0.287.

CARMIL1 C708: the “log2 mean competition ratio” value is -0.0834.
